Test results as given in publication PMC10960834.
No constants are given. Whether binding was seen depends on the method and setting. In cells and extracts the contact can be indirect. Some entries that bind do so weakly or less than the wild type. For some assays here: Sequences can lack the tags named with a protein.

Chains of the proteins cited; added tags and fusions are not shown. Lines headed by an entry give the natural chain unless they say otherwise; changes in a name come on top.
UniProt P05198: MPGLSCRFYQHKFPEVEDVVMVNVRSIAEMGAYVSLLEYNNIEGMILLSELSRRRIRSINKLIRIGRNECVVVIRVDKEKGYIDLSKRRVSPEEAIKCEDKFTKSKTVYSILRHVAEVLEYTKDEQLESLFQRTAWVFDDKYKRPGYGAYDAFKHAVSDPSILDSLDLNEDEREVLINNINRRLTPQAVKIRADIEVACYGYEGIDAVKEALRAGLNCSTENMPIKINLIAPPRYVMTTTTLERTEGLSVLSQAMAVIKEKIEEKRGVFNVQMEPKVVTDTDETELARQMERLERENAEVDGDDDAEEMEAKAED
UniProt Q9P2K8: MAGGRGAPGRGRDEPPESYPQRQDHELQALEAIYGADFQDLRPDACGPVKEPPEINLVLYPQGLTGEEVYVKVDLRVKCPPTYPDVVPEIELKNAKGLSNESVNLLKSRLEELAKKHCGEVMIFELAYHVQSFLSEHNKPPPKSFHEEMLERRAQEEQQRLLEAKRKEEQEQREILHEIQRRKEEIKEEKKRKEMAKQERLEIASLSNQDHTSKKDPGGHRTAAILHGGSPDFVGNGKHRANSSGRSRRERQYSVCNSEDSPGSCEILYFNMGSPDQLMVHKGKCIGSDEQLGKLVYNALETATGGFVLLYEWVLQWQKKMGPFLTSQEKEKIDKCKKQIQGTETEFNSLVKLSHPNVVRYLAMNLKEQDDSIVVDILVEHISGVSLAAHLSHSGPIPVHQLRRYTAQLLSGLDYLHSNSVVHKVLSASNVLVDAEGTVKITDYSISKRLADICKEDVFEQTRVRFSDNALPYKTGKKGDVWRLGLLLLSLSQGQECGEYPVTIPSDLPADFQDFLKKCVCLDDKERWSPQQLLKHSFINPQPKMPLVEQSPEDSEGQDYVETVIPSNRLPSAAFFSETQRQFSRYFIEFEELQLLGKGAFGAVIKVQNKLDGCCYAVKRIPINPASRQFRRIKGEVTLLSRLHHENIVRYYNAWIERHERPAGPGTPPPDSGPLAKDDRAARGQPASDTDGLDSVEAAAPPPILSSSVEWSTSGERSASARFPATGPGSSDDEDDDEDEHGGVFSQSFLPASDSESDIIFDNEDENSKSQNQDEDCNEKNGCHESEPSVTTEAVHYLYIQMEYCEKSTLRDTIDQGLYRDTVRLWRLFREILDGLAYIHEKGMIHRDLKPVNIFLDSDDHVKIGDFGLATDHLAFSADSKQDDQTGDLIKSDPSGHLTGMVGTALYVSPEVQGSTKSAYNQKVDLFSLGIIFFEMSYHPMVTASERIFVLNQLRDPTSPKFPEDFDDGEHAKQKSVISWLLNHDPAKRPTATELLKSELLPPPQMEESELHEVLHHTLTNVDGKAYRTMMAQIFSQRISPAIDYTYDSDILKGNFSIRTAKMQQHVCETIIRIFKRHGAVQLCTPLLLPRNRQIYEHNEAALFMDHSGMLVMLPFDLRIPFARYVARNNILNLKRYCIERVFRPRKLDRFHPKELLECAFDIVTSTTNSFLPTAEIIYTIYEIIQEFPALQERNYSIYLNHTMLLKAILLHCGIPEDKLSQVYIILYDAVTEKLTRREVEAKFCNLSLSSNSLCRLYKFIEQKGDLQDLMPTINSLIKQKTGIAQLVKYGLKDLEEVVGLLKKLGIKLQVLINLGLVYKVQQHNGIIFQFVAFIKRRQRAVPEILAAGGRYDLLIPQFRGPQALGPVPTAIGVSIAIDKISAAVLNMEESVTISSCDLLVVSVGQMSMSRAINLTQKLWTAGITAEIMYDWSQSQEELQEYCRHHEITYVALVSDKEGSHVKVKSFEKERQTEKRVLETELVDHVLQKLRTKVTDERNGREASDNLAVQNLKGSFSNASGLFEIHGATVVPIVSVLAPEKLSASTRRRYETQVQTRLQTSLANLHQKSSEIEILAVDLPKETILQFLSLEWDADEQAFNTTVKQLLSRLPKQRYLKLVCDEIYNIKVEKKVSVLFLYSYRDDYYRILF

T1: FLAG-tagged AURKA (Aurora kinase A) (UniProt O14965)
T1 sequence: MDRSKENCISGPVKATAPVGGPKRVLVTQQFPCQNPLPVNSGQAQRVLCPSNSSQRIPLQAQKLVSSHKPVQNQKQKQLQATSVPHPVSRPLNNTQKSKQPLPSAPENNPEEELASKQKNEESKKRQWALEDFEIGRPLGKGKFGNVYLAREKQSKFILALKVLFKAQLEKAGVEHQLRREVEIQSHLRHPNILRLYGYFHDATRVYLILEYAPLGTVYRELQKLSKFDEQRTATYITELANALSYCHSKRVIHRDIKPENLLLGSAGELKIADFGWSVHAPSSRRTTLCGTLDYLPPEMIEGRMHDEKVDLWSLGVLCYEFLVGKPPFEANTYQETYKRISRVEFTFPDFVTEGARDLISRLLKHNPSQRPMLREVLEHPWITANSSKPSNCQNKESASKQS

T2: FLAG-tagged AURKA, overexpressed in MDA-MB-231 cells (UniProt O14965)
T2 sequence: T1 sequence

T3: AURKA, endogenous in H1975 cells (human (endogenous in H1975)) (UniProt O14965)
T3 sequence: T1 sequence

B1: FLAG-tagged AURKA (Aurora kinase A) (enzyme, UniProt O14965 1-403)
chain: T1 sequence

Key:
[1] = biological target: T1, FLAG-tagged AURKA (Aurora kinase A); assay: co-IP; anti-FLAG antibody (IgG as control in some panels) on lysates of transfected HEK293T cells; NETN buffer (20 mM Tris-HCl pH 8.0, 100 mM NaCl, 0.5% NP-40, 1 mM EDTA), antibody overnight at 4 °C, Protein A/G magnetic beads, western blot; in Fig. 5E cells treated with vehicle or 200 nM MLN8237 for 4 h; in Fig. 5H with control vector or His-AURKA
FLAG-eIF2α = FLAG-eIF2α (UniProt P05198); assay: as above
[2] = biological target: T2, FLAG-tagged AURKA, overexpressed in MDA-MB-231 cells; assay: co-IP; lysates of MDA-MB-231 cells overexpressing FLAG-tagged AURKA (Fig. S4A); NETN buffer, Protein A/G magnetic beads, western blot
[3] = biological target: T3, AURKA, endogenous in H1975 cells (human (endogenous in H1975)); assay: co-IP; endogenous proteins, IgG or AURKA antibody on H1975 lysate; NETN buffer, 4 °C, Protein A/G magnetic beads, blot with the eIF2α antibody
HA-tagged eIF2α = HA-tagged eIF2α (UniProt P05198); assay: co-IP; anti-HA antibody on lysates of HEK293T cells overexpressing HA-eIF2α, FLAG-AURKA or both; NETN buffer, 4 °C, Protein A/G magnetic beads, western blot

Molecule	binding [1]	other results
HA-GCN2 (from UniProt Q9P2K8 1-1649) (enzyme)	binds	binding (FLAG-eIF2α): binds
HA-eIF2α-S52A (from UniProt P05198 1-315)	binds	–
HA-tagged eIF2α (from UniProt P05198 1-315)	binds	–
eIF2α (untagged, overexpressed) (from UniProt P05198 1-315)	binds	–
eIF2α in MDA-MB-231 cells (from UniProt P05198 1-315)	–	binding [2]: binds
eIF2α, endogenous in H1975 cells (from UniProt P05198 1-315)	–	binding [3]: binds
B1	–	binding (HA-tagged eIF2α): binds
